Measured values reported in patent US4144236A (priority 1973, dated 1979).
Where two headings read alike, the source gives them in different places.

Legend:
[1] = tested on: Longitudinal muscle preparate (guinea pig); assay: Longitudinal muscle preparate (guinea pig; Paton and Vizi)
From the text: ^++++ Paton,W.D.M. and Vizi,E.S.:Br.J.Pharmac. 35, 10 (1969)

[2] = tested on: citric acid aerosol induced cough; assay type: in vivo, Wistar rats; conditions: rats; for AtD50: limits in brackets
Protocol: The anti-tussive activity in rats was tested by the method of Gosswald. Wistar rats weighing 130 to 180 g were placed in a plexi box (23 × 22 × 11 cm) and cough responses were elicited by citric acid aerosol (10%). The latency period of cough was measured before and after drug administration. The control latency was determined 18 hours before the drug administration. Animals with less than 60 second control latency were used for the experiments. […] Each animal was exposed to citric acid aerosol for a period of 3 minutes 30 seconds and 60 minutes after drug administration. […]. Ten animals were used at each dose level. The anti-tussive dose (AtD50) was calculated according to Litchfield and Wilcoxon. The drugs were administered by subcutaneous and oral routes.

[3] = tested on: electrical stimulation induced coughing; assay: Anti-tussive activity: electrical stimulation (superior laryngeal nerve) induced coughing in cats (method of Domenjoz); assay type: in vivo; conditions: i.v.
Protocol: Anti-tussive activity in cats was determined by the method of Domenjoz. Cats weighing 2.5 to 3.5 kg were anesthetized with an i.p. dose of 30 mg per kg of sodium pentobarbitone. […] The cough responses were measured by means of a Marey-tambour connected to a face mask and recorded on a smoked paper. Drugs were given intravenously in increasing doses. The effect of each dose was measured on at least five cats. The effects of the drug was calculated from the changes of amplitude of cough curves. If no coughing was produced by two successive stimulations, the dose was taken as the effective anti-tussive dose (AtD100). The anti-tussive dose (AtD50) which reduces the control response by 50% was calculated by the method of Litchfield and Wilcoxon.

in vivo = conditions: rat, sc

CN1CC[C@]23c4c5ccc(O)c4O[C@H]2[C@@H](O)C=C[C@H]3[C@H]1C5 [Morphine]
Longitudinal muscle preparate (guinea pig) LD50 [1]: 46.0 mg/kg | Ratio codeine/drug (AtD50) ([2]; oral): 1.35 | AtD50 ([2]; oral): 74.0 (51.03-107.30) mg/kg oral | Ratio codeine/drug (AtD50) ([2]; s.c.): 6.33 | AtD50 ([2]; s.c.): 3.00 (1.84-4.25) mg/kg s.c. | Ratio codeine/drug (AtD50) [3]: 2.38 | LD50 (in vivo): 310 mg/kg
